Some of the results follow. This is a noisy data set.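 Tm was set to 64 °C where no melting was found, and many curves are irregular.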

The chains behind the UniProt entries cited, without tags or fusion partners. Where a name states a change or a piece, a line headed by the entry shows the natural chain unless it says otherwise.
UniProt O43597: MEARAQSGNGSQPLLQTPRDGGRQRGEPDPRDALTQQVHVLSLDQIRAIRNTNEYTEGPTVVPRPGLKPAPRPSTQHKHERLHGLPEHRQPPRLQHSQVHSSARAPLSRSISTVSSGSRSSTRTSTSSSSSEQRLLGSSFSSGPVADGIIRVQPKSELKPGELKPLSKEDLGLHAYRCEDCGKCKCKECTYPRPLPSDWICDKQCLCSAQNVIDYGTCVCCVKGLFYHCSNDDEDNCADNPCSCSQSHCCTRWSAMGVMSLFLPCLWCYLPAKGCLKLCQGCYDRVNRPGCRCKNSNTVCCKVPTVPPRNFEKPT
UniProt O60925, whole entry: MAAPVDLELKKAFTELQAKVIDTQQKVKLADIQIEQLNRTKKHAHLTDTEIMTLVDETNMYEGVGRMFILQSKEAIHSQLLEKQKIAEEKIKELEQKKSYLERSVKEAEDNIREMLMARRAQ
UniProt O60763: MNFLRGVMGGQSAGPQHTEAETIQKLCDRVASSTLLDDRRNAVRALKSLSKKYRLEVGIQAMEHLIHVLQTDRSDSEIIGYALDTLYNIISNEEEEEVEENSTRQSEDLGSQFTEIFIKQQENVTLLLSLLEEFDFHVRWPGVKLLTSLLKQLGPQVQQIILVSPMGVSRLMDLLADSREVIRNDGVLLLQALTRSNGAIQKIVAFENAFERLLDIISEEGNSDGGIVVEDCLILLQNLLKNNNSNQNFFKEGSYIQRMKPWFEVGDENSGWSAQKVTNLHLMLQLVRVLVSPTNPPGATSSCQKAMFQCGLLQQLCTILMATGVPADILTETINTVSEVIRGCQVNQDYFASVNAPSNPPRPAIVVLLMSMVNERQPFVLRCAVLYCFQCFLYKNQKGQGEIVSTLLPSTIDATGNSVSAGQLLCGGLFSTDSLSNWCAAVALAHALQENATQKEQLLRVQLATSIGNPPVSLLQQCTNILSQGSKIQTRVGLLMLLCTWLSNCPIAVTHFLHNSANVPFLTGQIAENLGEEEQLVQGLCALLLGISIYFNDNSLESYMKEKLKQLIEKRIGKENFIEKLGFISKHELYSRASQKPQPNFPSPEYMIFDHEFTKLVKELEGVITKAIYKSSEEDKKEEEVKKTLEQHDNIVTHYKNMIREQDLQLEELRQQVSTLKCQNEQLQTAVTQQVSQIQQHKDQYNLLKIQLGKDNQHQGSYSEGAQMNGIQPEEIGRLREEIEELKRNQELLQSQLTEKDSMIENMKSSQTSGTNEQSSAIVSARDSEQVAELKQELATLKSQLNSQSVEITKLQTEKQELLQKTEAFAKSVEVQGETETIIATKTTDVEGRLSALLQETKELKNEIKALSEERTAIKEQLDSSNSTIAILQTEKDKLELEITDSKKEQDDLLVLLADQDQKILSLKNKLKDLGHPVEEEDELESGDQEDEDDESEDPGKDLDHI
UniProt O75874, whole entry: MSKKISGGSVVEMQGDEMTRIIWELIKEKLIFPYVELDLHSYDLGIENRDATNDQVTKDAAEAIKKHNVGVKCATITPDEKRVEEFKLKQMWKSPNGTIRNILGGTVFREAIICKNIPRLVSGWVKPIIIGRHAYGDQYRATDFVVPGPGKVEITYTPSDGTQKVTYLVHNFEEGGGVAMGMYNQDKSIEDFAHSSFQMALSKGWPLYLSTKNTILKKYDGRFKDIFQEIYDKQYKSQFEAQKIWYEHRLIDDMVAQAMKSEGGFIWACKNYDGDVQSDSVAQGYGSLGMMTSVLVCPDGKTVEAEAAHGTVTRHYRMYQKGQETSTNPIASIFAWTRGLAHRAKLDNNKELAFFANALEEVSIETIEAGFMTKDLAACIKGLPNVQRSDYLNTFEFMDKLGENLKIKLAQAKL
UniProt O75223: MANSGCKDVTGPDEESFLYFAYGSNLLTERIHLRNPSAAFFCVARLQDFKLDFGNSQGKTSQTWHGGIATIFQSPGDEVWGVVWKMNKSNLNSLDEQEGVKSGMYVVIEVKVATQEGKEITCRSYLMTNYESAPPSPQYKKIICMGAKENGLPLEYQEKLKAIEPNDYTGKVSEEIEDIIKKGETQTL
UniProt O60462, whole entry: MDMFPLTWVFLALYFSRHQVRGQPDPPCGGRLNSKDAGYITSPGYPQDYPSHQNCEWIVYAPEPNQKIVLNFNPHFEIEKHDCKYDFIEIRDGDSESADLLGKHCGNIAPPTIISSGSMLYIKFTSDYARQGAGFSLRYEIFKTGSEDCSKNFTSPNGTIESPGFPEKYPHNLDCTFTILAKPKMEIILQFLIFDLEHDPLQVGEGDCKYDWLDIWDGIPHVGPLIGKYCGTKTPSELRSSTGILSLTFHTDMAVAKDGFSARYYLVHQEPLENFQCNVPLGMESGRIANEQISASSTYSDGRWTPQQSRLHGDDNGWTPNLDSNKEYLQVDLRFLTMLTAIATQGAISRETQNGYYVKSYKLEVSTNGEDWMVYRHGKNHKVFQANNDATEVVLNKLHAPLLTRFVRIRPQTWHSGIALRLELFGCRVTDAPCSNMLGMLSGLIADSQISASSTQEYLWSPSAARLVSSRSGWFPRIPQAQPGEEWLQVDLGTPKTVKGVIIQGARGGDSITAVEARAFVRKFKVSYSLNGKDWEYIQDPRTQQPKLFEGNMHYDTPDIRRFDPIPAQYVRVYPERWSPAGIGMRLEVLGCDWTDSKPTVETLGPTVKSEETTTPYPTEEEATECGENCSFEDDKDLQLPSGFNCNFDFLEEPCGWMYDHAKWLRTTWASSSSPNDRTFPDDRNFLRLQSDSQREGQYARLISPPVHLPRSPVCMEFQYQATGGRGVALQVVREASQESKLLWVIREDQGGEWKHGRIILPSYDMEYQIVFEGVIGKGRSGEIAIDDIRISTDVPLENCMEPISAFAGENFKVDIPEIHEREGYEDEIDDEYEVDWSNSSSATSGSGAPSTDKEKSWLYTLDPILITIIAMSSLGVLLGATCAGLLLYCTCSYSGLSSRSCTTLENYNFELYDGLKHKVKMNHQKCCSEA
UniProt O43353, whole entry: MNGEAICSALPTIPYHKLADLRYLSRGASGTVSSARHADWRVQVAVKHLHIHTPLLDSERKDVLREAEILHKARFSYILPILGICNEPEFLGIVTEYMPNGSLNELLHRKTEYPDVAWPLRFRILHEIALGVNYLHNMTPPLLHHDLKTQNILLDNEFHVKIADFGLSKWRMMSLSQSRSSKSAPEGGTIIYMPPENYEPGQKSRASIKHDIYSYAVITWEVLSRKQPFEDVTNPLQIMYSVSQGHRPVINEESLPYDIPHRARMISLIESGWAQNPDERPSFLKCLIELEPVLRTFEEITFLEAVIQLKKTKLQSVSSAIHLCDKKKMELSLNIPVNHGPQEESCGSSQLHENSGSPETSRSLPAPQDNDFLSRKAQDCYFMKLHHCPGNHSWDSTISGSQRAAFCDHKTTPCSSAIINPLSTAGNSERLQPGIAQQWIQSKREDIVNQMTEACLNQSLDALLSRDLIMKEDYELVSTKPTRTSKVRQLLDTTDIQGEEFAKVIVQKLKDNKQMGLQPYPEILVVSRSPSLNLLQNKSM
UniProt O43920, whole entry: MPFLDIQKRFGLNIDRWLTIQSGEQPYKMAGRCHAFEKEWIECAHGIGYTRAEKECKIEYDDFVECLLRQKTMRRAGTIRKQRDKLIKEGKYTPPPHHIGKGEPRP
UniProt O43665: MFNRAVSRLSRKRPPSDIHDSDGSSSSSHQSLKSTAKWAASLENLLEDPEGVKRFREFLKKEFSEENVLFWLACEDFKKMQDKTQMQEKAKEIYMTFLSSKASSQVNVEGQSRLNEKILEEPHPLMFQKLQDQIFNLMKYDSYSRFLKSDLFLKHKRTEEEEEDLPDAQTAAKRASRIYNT
UniProt O75427: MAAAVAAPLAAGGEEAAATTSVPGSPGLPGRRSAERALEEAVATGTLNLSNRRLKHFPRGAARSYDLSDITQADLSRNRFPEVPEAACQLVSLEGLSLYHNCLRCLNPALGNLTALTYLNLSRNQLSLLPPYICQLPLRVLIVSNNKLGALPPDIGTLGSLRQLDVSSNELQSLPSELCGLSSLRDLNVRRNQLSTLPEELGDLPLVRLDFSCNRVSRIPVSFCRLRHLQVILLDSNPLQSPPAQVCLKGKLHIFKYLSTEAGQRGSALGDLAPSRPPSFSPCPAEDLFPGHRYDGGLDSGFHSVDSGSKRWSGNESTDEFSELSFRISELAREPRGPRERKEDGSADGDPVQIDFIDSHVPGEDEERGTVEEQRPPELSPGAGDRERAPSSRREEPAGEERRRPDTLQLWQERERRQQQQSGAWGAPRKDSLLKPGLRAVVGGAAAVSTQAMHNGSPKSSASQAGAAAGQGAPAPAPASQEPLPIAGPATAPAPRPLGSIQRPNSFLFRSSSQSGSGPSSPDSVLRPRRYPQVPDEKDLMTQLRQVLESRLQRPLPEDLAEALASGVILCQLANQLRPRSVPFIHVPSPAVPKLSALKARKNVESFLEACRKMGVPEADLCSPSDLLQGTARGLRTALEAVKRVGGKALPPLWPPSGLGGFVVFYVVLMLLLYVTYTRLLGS
UniProt O60739, whole entry: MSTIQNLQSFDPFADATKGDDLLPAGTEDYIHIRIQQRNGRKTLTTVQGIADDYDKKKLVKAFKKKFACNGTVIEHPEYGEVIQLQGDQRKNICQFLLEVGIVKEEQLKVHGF
UniProt O75352: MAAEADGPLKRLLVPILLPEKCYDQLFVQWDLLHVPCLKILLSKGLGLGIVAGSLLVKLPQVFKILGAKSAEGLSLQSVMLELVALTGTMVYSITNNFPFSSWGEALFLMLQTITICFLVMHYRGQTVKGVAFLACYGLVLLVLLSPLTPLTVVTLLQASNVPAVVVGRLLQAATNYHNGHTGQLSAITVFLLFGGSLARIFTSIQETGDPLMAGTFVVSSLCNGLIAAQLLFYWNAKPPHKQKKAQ
UniProt O60716: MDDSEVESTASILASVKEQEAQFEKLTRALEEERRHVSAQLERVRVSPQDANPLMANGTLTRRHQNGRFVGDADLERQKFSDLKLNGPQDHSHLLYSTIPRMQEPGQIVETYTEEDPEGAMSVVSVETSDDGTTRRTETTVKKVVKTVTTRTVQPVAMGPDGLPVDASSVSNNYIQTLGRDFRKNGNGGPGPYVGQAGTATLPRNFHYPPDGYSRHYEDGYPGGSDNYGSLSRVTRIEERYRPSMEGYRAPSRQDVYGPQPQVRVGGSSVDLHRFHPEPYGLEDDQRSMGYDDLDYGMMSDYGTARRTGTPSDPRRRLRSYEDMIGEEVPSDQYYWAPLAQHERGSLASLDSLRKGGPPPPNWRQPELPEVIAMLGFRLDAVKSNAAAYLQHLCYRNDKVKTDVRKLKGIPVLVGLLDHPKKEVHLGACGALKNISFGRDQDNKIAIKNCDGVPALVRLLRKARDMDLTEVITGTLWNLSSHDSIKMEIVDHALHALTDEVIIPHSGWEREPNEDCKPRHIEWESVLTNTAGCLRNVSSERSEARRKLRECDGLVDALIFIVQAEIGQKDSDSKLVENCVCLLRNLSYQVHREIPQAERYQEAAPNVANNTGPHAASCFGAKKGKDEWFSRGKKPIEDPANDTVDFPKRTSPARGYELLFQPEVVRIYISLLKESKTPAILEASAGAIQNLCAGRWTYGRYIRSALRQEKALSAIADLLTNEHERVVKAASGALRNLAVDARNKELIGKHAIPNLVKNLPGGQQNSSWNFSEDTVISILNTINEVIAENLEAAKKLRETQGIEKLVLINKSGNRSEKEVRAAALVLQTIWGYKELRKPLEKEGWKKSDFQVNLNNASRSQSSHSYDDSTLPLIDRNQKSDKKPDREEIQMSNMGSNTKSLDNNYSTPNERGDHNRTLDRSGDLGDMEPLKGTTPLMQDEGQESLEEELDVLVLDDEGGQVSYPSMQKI
UniProt O75175, whole entry: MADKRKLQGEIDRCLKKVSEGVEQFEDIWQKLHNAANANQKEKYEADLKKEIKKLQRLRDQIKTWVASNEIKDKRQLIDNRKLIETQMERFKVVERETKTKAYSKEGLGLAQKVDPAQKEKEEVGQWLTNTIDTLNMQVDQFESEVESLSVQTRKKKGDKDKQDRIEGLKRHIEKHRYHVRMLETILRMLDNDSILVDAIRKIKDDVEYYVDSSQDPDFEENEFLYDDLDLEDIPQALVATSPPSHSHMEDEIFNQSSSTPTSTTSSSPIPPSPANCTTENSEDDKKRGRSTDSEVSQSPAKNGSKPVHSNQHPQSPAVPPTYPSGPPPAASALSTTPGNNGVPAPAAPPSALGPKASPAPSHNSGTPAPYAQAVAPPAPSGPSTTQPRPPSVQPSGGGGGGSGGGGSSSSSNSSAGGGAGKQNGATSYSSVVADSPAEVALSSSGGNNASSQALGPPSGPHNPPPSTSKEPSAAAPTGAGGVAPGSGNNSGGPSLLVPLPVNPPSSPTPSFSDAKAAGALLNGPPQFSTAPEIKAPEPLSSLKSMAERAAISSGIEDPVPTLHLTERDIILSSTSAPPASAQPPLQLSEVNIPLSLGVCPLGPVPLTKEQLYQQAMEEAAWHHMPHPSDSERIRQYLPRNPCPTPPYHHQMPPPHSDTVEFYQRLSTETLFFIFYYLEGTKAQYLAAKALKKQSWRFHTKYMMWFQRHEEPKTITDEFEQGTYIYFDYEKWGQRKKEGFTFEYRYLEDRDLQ

Compound in one experiment: CCc1cnccc1C(=O)Nc1cc2c(cc1F)NC(=O)CC2
In words: melting temperature shift (DMSO Tm minus MBE1-treated Tm) in cellular thermal proteome profiling; higher = less thermal stabilization by MBE1 (negative = stabilized by MBE1). The conditions noted are these: A375; MBE1 concentration: 100 nM.
In the case of NDUFS2 (UniProt O75306), the melting temperature shift is -0.44 °C.

As for EVI5 (UniProt O60447), the melting temperature shift is -0.128 °C.

Consider UniProt O60282, for which the melting temperature shift was -0.507 °C.

Regarding PPP1R37 (UniProt O75864), the melting temperature shift was -0.579 °C.

Regarding ZC3H11A (UniProt O75152), the melting temperature shift is -0.0897 °C.

For UniProt O43597, the melting temperature shift is -5.05 °C.

For KIF1B (UniProt O60333), the melting temperature shift was 0.763 °C.

On to UniProt O60315, for which the melting temperature shift was -0.621 °C.

Turning to DFNA5 (UniProt O60443), the melting temperature shift was -0.671 °C.

Turning to PFDN1 (UniProt O60925), the melting temperature shift was -0.378 °C.

On to USO1 (UniProt O60763), for which the melting temperature shift is 0.678 °C.

With LCMT2 (UniProt O60294), the melting temperature shift turned out to be 0.362 °C.

With TRIM3 (UniProt O75382), the melting temperature shift is -1.21 °C.

In the case of ORC4 (UniProt O43929), the melting temperature shift is -0.621 °C.

Turning to SH3BP5 (UniProt O60239), the melting temperature shift came to 1.07 °C.

For IDH1 (UniProt O75874), the melting temperature shift is -0.397 °C.

With UniProt O75356, the melting temperature shift was -0.651 °C.

As for GGCT (UniProt O75223), the melting temperature shift is -0.696 °C.

For UniProt O60462, the melting temperature shift is -1.63 °C.

On to CLASP2 (UniProt O75122), for which the melting temperature shift was determined as 0.165 °C.

Take UniProt O43482: the melting temperature shift was -1.12 °C.

As for UniProt O43741, the melting temperature shift was -1.18 °C.

As to RIPK2 (UniProt O43353), the melting temperature shift is -1.61 °C.

Take NDUFS5 (UniProt O43920): the melting temperature shift is -1.36 °C.

Take RGS10 (UniProt O43665): the melting temperature shift was -0.955 °C.

Consider GMDS (UniProt O60547), for which the melting temperature shift was -0.127 °C.

With PDE8A (UniProt O60658), the melting temperature shift is -0.55 °C.

Regarding LRCH4 (UniProt O75427), the melting temperature shift was -0.165 °C.

As for UniProt O60739, the melting temperature shift was -3.71 °C.

Consider UniProt O75509, for which the melting temperature shift was -1.13 °C.

As for GIGYF1 (UniProt O75420), the melting temperature shift was 0.598 °C.

On to PSIP1 (UniProt O75475), for which the melting temperature shift was -1.01 °C.

In the case of UniProt O75352, the melting temperature shift was -1.48 °C.

As for RAD21 (UniProt O60216), the melting temperature shift was -0.526 °C.

Turning to EPB41L2 (UniProt O43491), the melting temperature shift was -0.747 °C.

PLRG1 (UniProt O43660): the melting temperature shift is 0.47 °C.

Regarding CTNND1 (UniProt O60716), the melting temperature shift is 0.301 °C.

CNOT3 (UniProt O75175): the melting temperature shift amounted to 1.35 °C.

Still in this experiment, the particulars now being: A375; MBE1 concentration: 1 uM.
NDUFS2 (UniProt O75306): the melting temperature shift came to 0.189 °C.

In the case of EVI5 (UniProt O60447), the melting temperature shift was found to be 0.208 °C.

For the target UniProt O60282, the melting temperature shift is -1.28 °C.

Turning to PPP1R37 (UniProt O75864), the melting temperature shift was found to be 0.73 °C.

As to ZC3H11A (UniProt O75152), the melting temperature shift is -0.404 °C.

On to UniProt O43597, for which the melting temperature shift was -3.36 °C.

As for KIF1B (UniProt O60333), the melting temperature shift came out at 0.409 °C.

Take UniProt O60315: the melting temperature shift was found to be 0.179 °C.

Take DFNA5 (UniProt O60443): the melting temperature shift was found to be 0.74 °C.

In the case of PFDN1 (UniProt O60925), the melting temperature shift was -4.03 °C.

Consider USO1 (UniProt O60763), for which the melting temperature shift amounted to 0.397 °C.

As for LCMT2 (UniProt O60294), the melting temperature shift stood at 0.202 °C.

With TRIM3 (UniProt O75382), the melting temperature shift was -0.795 °C.

With ORC4 (UniProt O43929), the melting temperature shift is -0.36 °C.

In the case of SH3BP5 (UniProt O60239), the melting temperature shift amounted to 0.14 °C.

For the target IDH1 (UniProt O75874), the melting temperature shift came out at 0.507 °C.

In the case of UniProt O75356, the melting temperature shift is 0.219 °C.

Regarding GGCT (UniProt O75223), the melting temperature shift is -0.183 °C.

Consider UniProt O60462, for which the melting temperature shift was found to be 0.397 °C.

As for CLASP2 (UniProt O75122), the melting temperature shift is -0.153 °C.

On to UniProt O43482, for which the melting temperature shift turned out to be 0.226 °C.

As to UniProt O43741, the melting temperature shift was -1.09 °C.

Regarding RIPK2 (UniProt O43353), the melting temperature shift came to 0.623 °C.

Turning to NDUFS5 (UniProt O43920), the melting temperature shift is -0.84 °C.

With RGS10 (UniProt O43665), the melting temperature shift stood at 0.525 °C.

For GMDS (UniProt O60547), the melting temperature shift was determined as 1.49 °C.

On to PDE8A (UniProt O60658), for which the melting temperature shift was determined as 0.666 °C.

For LRCH4 (UniProt O75427), the melting temperature shift is 0.141 °C.

In the case of UniProt O60739, the melting temperature shift is -0.0183 °C.

As to UniProt O75509, the melting temperature shift was determined as 2.42 °C.

For GIGYF1 (UniProt O75420), the melting temperature shift was -0.889 °C.

Take PSIP1 (UniProt O75475): the melting temperature shift amounted to 0.348 °C.

On to UniProt O75352, for which the melting temperature shift was 0.0472 °C.

For RAD21 (UniProt O60216), the melting temperature shift is -0.208 °C.

In the case of EPB41L2 (UniProt O43491), the melting temperature shift was determined as 0.165 °C.

Regarding PLRG1 (UniProt O43660), the melting temperature shift is -1.18 °C.

Regarding CTNND1 (UniProt O60716), the melting temperature shift is 0.0706 °C.

For CNOT3 (UniProt O75175), the melting temperature shift amounted to 0.379 °C.

The values are drawn from the supplement of paper PMC12595434, “Development of retinoid nuclear receptor pathway antagonists through targeting aldehyde dehydrogenase 1A3” (iScience, 2025).
